Among the data in US20220218746A1 are binding values, retold here.

By UniProt entry, the sequences of proteins in these tests, tags left out. Residues count along the entry.
UniProt Q02223, residues 1-54: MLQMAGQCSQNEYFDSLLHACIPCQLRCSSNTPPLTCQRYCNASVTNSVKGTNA

For this experiment, the target named is BCMA antigen purchased from Beijing Yiqiao Shenzhou Ltd. (UniProt Q02223). Kind of experiment: phage ELISA on coated antigen, then SPR of purified single domain antibodies; values not given. In general terms: An ELISA detects its analyte on a solid surface through an enzyme-linked reagent.

Results are given in words; binding and its absence hold for the method and conditions named. Some entries that bind do so weakly or less than the wild type.

B1: BCMA sdAb I (VHH)
VHH: EVQLQASGGGLAQPGGSLRLSCAASGRTFSTYFMAWFRQPPGKGLEYVGGIRWSDGVPHYADSVKGRFTISRDNAKNTVYLQMNSLRAEDTAVYFCASRGIADGSDFGSYGQGTQVTVSS
With B1, the binding result was “binds”.
